Results on one compound are retold here after patent EP3381905A1, “NOVEL ANTIVIRAL COMPOUNDS” (priority 2017, dated 2018).

Chains of the proteins cited; added tags and fusions are not shown. Residues count along the entry.
UniProt P46934, 840-873 limits assumed: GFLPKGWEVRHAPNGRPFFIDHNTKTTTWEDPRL

Structures are written as SMILES.

Test [1] deals with MARV.
Test [2] relates to MARV VP40 containing the wild type (wt) VP40 of Marburg virus (VP40WT). Format: cell-based.
Test [3] deals with GFP expressing HAd-C5 vector. Nature of the test: fluorescent plaque forming assay (adenoviral propagation / virus spread). Format: cell-based, adenovirus. The note with it: 5 µM, compared to the DMSO negative control (Example 8, Figure 6).
Test [4] addresses WW3-domain of NEDD4 (Homo sapiens, UniProt P46934).

For the compound `Clc1ccc(CSC(Cn2ccnc2)c2ccc(Cl)cc2Cl)cc1` (stereo not shown) [Sulconazole], in test [1], the “inhibition of MARV replication depending on time of addition” value was “occurred irrespective of the time the drug was added”. For the same compound, the “VP40 VLP release” value in test [2] is on record as “inhibit”. Moreover, in test [3], the “anti-adenoviral activity (plaque size)” value is “effective anti-adenoviral activity”. Besides, the “interaction with the NEDD4 peptide (chemical shift changes)” value in test [4] was “interacts with the NEDD4 peptide”.
